{"source": "PubChem BioAssay AID1259405, NCATS | 2018", "assay": "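Mouse-designed siRNAs used to find CHO productivity engineering targets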 (primary screen)", "cells": "Chinese hamster CHO-K1 ovary cells with stable secreted eGFP expression", "reagent": "single siRNA against mouse genes, 0.8 pmol siRNA per well (2 µl of 400 nM stock)", "duration": "3 days", "measured": "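Percent of the per-plate non-targeting control median for intracellular GFP per well by laser scanning cytometry and for cell viability by ATP luminescence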", "scale": "GFP, % of control: higher = more GFP per well, higher productivity; viability (ATP), % of control: higher = more viable cells (more ATP)", "active means": "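Called active when intracellular GFP, relative to negative control, is at or above 120%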", "note": "Shown is an unselected part of about 50,000 reagents. Over the whole deposit, about 4,000 (8%) are marked active. 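Mouse siRNA library applied to hamster cells; one well for each siRNA.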 The numbers tell different reagents against one gene apart."}
{"gene knocked down":"Dagla","siRNA no.":1,"GFP, % of control":77.5,"viability (ATP), % of control":60.8,"activity call":"inactive"}
{"gene knocked down":"Dagla","siRNA no.":2,"GFP, % of control":139,"viability (ATP), % of control":64,"activity call":"active"}
{"gene knocked down":"Dagla","siRNA no.":3,"GFP, % of control":57.4,"viability (ATP), % of control":61.4,"activity call":"inactive"}
{"gene knocked down":"Serac1","siRNA no.":1,"GFP, % of control":93,"viability (ATP), % of control":80.5,"activity call":"inactive"}
{"gene knocked down":"Serac1","siRNA no.":2,"GFP, % of control":65.2,"viability (ATP), % of control":64.9,"activity call":"inactive"}
{"gene knocked down":"Serac1","siRNA no.":3,"GFP, % of control":24.7,"viability (ATP), % of control":57.8,"activity call":"inactive"}

A run of entries from the list above:
{"gene knocked down":"Dagla","siRNA no.":1,"GFP, % of control":77.5,"viability (ATP), % of control":60.8,"activity call":"inactive"}
{"gene knocked down":"Dagla","siRNA no.":2,"GFP, % of control":139,"viability (ATP), % of control":64,"activity call":"active"}

The results go on:
{"gene knocked down":"Or5t18","siRNA no.":1,"GFP, % of control":77.6,"viability (ATP), % of control":49.6,"activity call":"inactive"}
{"gene knocked down":"Or5t18","siRNA no.":2,"GFP, % of control":66.7,"viability (ATP), % of control":85.3,"activity call":"inactive"}
{"gene knocked down":"Or5t18","siRNA no.":3,"GFP, % of control":59.9,"viability (ATP), % of control":82.2,"activity call":"inactive"}
{"gene knocked down":"Frg2f1","siRNA no.":1,"GFP, % of control":64.4,"viability (ATP), % of control":44.3,"activity call":"inactive"}
{"gene knocked down":"Frg2f1","siRNA no.":2,"GFP, % of control":147,"viability (ATP), % of control":129,"activity call":"active"}
{"gene knocked down":"Frg2f1","siRNA no.":3,"GFP, % of control":36,"viability (ATP), % of control":56.9,"activity call":"inactive"}
{"gene knocked down":"Trub2","siRNA no.":1,"GFP, % of control":128,"viability (ATP), % of control":99.6,"activity call":"active"}
{"gene knocked down":"Trub2","siRNA no.":2,"GFP, % of control":52.8,"viability (ATP), % of control":70.1,"activity call":"inactive"}
{"gene knocked down":"Trub2","siRNA no.":3,"GFP, % of control":24.5,"viability (ATP), % of control":40.7,"activity call":"inactive"}
{"gene knocked down":"Sh3rf3","siRNA no.":1,"GFP, % of control":114,"viability (ATP), % of control":90.2,"activity call":"inactive"}
{"gene knocked down":"Sh3rf3","siRNA no.":2,"GFP, % of control":73.3,"viability (ATP), % of control":59.2,"activity call":"inactive"}
{"gene knocked down":"Sh3rf3","siRNA no.":3,"GFP, % of control":58.9,"viability (ATP), % of control":60.9,"activity call":"inactive"}
